# The list is a part of this screen's results and no random one: it is rich in T/C values a quarter to a half above the control, in often repeated tests (any T/C) and in doses without a T/C. Further doses and runs are listed elsewhere. T/C is the treated group as % of the vehicle group. Some doses have a count of surviving animals in place of a T/C: the source holds a T/C of zero for them, seemingly a mark for toxic or unscored doses. Some survivor counts are full or nearly so, which does not show that the dose was tolerated: the source hardly ever lists a survival T/C far under the control, and the zero likely stands for such cases as well. Survivors were counted at the toxicity check, usually on the fifth day, unless a day is given; later deaths do not show. Schedule codes are those of the source, read here as Q, the interval in days (D) or hours (H), X, the number of doses. Where survival is the endpoint, this PubChem deposit counts one and a half times the control or more as active, and values a quarter to a half above the control carry no call in these data; other NCI protocols may use other cut-offs. Some T/C values are followed by the survivors on the day toxicity was checked, most often the fifth; without a count, all were alive then.
# Test system: BDF1 mice, P388 leukemia ip, median survival T/C
# Assay: NCI In Vivo Anticancer Drug Screen. Data for tumor model P388 Leukemia (intraperitoneal) in B6D2F1 (BDF1) mice
# Conditions: T/C endpoint: median survival time, higher T/C = longer survival
# How it was run: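 T/C = treated-group survival ÷ vehicle-control survival; tumour transplanted into mice before dosing.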
# [1] = dose: 50.0 mg/kg/injection, schedule: Q01DX009 (ip), vehicle: saline with Tween-80
# [2] = dose: 75.0 mg/kg/injection, schedule: Q01DX009 (ip), vehicle: saline with Tween-80
# [3] = dose: 100.0 mg/kg/injection, schedule: Q01DX009 (ip), vehicle: saline
# [4] = dose: 400.0 mg/kg/injection, schedule: Q04DX003 (ip), vehicle: Klucel (hydroxypropylcellulose) (HPC)
# [5] = dose: 100.0 mg/kg/injection, schedule: Q01DX009 (ip), vehicle: saline with Tween-80
# [6] = dose: 200.0 mg/kg/injection, schedule: Q01DX009 (ip), vehicle: saline with Tween-80
# [7] = dose: 400.0 mg/kg/injection, schedule: Q01DX009 (ip), vehicle: saline with Tween-80
# [8] = dose: 100.0 mg/kg/injection, schedule: Q04DX003 (ip), vehicle: saline with Tween-80
# [9] = dose: 50.0 mg/kg/injection, schedule: Q01DX009 (ip), vehicle: saline
# [10] = dose: 200.0 mg/kg/injection, schedule: Q01DX009 (ip), vehicle: saline
# [11] = dose: 400.0 mg/kg/injection, schedule: Q01DX009 (ip), vehicle: saline
# [12] = dose: 75.0 mg/kg/injection, schedule: Q01DX009 (ip), vehicle: saline
smiles,measurement,setting,value
Cc1cc(NC(=O)NCc2ccc(N3C(N)=NC(N)=NC3(C)C)cc2)ccc1S(=O)(=O)F,T/C,"dose: 7.2 mg/kg/injection, schedule: Q01DX009 (ip), vehicle: saline",142 % of control
same,T/C,"dose: 11.0 mg/kg/injection, schedule: Q01DX009 (ip), vehicle: saline",129 % of control
same,T/C,"dose: 16.0 mg/kg/injection, schedule: Q01DX009 (ip), vehicle: saline",129 % of control
same,T/C,"dose: 35.0 mg/kg/injection, schedule: Q01DX009 (ip), vehicle: saline with Tween-80",131 % of control
same,T/C,[1],131 % of control
same,T/C,"dose: 65.0 mg/kg/injection, schedule: Q04DX003 (ip), vehicle: saline with Tween-80",145 % of control
same,T/C,[2],145 % of control
same,survivor count,[3],5 of 6
same,T/C,"dose: 200.0 mg/kg/injection, schedule: Q04DX003 (ip), vehicle: alcohol",135 % of control
same,T/C,"dose: 264.0 mg/kg/injection, schedule: Q04DX003 (ip), vehicle: Klucel (hydroxypropylcellulose) (HPC)",140 % of control
same,T/C,[4],140 % of control
same,survivor count,"dose: 400.0 mg/kg/injection, schedule: Q04DX003 (ip), vehicle: saline",2 of 6
COC1C=COC2(C)Oc3c(C)c(O)c4c(c3C2=O)/C(=N/C2CCC(O)OC2C)C=C(NC(=O)/C(C)=C\C(=O)C2CC2C(O)C(C)C(O)C(C)C(OC(C)=O)C1C)C4=O (stereo not drawn),survivor count,[2],6 of 6
Cc1cc(-c2ccccc2)nnc1NCCN1CCOCC1,survivor count,[1],2 of 6
same,survivor count,[5],0 of 6
same,survivor count,[6],0 of 6
CCCC#CCOCC1CO1 (stereo not drawn),survivor count,[7],1 of 6
O=C(CCCc1ccc(N(CCCl)CCCl)cc1)Nc1ncccn1,T/C,"dose: 5.0 mg/kg/injection, schedule: Q01DX009 (ip), vehicle: Klucel (hydroxypropylcellulose) (HPC)",126 % of control [5 of 6 alive]
same,T/C,"dose: 12.0 mg/kg/injection, schedule: Q01DX009 (ip), vehicle: Klucel (hydroxypropylcellulose) (HPC)",128 % of control
same,T/C,"dose: 12.5 mg/kg/injection, schedule: Q01DX009 (ip), vehicle: Klucel (hydroxypropylcellulose) (HPC)",138 % of control
same,survivor count,"dose: 50.0 mg/kg/injection, schedule: Q01DX009 (ip), vehicle: Klucel (hydroxypropylcellulose) (HPC)",0 of 6
O=C(NO)Nc1nc(Cl)c(Cl)nc1Cl,T/C,"dose: 25.0 mg/kg/injection, schedule: Q04DX003 (ip), vehicle: saline with Tween-80",134 % of control
same,T/C,"dose: 50.0 mg/kg/injection, schedule: Q01DX009 (ip), vehicle: water",125 % of control
same,T/C,"dose: 50.0 mg/kg/injection, schedule: Q04DX003 (ip), vehicle: saline with Tween-80",144 % of control
same,T/C,[8],149 % of control
same,T/C,"dose: 100.0 mg/kg/injection, schedule: Q04DX003 (ip), vehicle: water",148 % of control
same,survivor count,"dose: 200.0 mg/kg/injection, schedule: Q01DX009 (ip), vehicle: water",4 of 6
same,survivor count,"dose: 200.0 mg/kg/injection, schedule: Q04DX003 (ip), vehicle: saline with Tween-80",5 of 6
CCCC(=O)c1ccco1,survivor count,[5],4 of 6
same,survivor count,[6],0 of 6
CC(=O)N(C)c1ccc(Nc2cc(C)[nH]c3ccc4ncnc4c23)cc1,T/C,"dose: 25.0 mg/kg/injection, schedule: Q04DX002 (ip), vehicle: saline",137 % of control
same,survivor count,"dose: 200.0 mg/kg/injection, schedule: Q04DX002 (ip), vehicle: saline with Tween-80",5 of 6
same,survivor count,"dose: 200.0 mg/kg/injection, schedule: Q04DX002 (ip), vehicle: saline",6 of 6
same,survivor count,"dose: 400.0 mg/kg/injection, schedule: Q04DX002 (ip), vehicle: saline with Tween-80",0 of 6
COc1cc2c(cc1OC)C1c3cc(OC)c(OC)cc3CC(=O)N1CC2 (stereo not drawn),survivor count,"dose: 0.18 mg/kg/injection, schedule: Q01DX009 (ip), vehicle: saline",6 of 6
same,survivor count,"dose: 6.25 mg/kg/injection, schedule: Q01DX009 (ip), vehicle: saline",6 of 6
same,survivor count,"dose: 25.0 mg/kg/injection, schedule: Q01DX009 (ip), vehicle: saline",5 of 6
same,survivor count,[9],5 of 6
same,survivor count,[10],6 of 6
same,survivor count,[11],5 of 6
CCCn1cnc2c(=S)nc[nH]c21,survivor count,[6],5 of 6
same,survivor count,[7],5 of 6
Clc1cc(CBr)c(Cl)c(Cl)c1CBr,T/C,"dose: 6.25 mg/kg/injection, schedule: Q01DX009 (ip), vehicle: saline with Tween-80",127 % of control
same,T/C,"dose: 12.5 mg/kg/injection, schedule: Q01DX009 (ip), vehicle: saline with Tween-80",127 % of control
same,survivor count,"dose: 25.0 mg/kg/injection, schedule: Q01DX009 (ip), vehicle: Klucel (hydroxypropylcellulose) (HPC)",2 of 6
same,T/C,"dose: 25.0 mg/kg/injection, schedule: Q01DX009 (ip), vehicle: saline with Tween-80",127 % of control
CCOP1(=O)N(C)CCN1C,survivor count,[3],5 of 6
same,survivor count,[10],1 of 6
CCCCN(C(C)(C)C(SSSC(c1ccc(Cl)cc1)C(C)(C)N(CCCC)S(C)(=O)=O)c1ccc(Cl)cc1)S(C)(=O)=O (stereo not drawn),survivor count,[8],3 of 6
COc1ccc(C[C@@H]2NC[C@@H](O)[C@@H]2OC(C)=O)cc1,survivor count,"dose: 22.0 mg/kg/injection, schedule: Q01DX009 (ip), vehicle: saline",3 of 3
same,survivor count,"dose: 33.0 mg/kg/injection, schedule: Q01DX009 (ip), vehicle: saline",3 of 3
same,T/C,[9],128 % of control
same,survivor count,[9],3 of 3
same,T/C,[12],132 % of control
same,survivor count,[12],3 of 3
same,T/C,[10],128 % of control
C=C1C(=O)OC2C=C(C)CC3C=C(CCC=C(C)CCC12)C(=O)O3 (stereo not drawn),survivor count,"dose: 20.0 mg/kg/injection, schedule: Q01DX009 (ip), vehicle: saline",4 of 4
CCCN=C(N)c1ccc(NC(=O)c2ccc(C(=O)Nc3ccc(C(N)=NCCC)cc3)cc2)cc1,T/C,"dose: 2.0 mg/kg/injection, schedule: Q04DX003 (ip), vehicle: saline with Tween-80",135 % of control
same,T/C,"dose: 75.0 mg/kg/injection, schedule: Q04DX003 (ip), vehicle: saline with Tween-80",140 % of control
same,survivor count,"dose: 400.0 mg/kg/injection, schedule: Q04DX003 (ip), vehicle: saline with Tween-80",5 of 6
O=C1CCC(=O)N1CO,T/C,"dose: 75.0 mg/kg/injection, schedule: Q04DX003 (ip), vehicle: saline",127 % of control
same,T/C,"dose: 100.0 mg/kg/injection, schedule: Q04DX003 (ip), vehicle: saline",127 % of control
same,T/C,"dose: 150.0 mg/kg/injection, schedule: Q04DX003 (ip), vehicle: saline",140 % of control
CSc1nc(N)cc(NC(=O)CCl)n1,survivor count,"dose: 200.0 mg/kg/injection, schedule: Q01DX009 (ip), vehicle: Klucel (hydroxypropylcellulose) (HPC)",2 of 6
same,survivor count,[6],6 of 6
same,survivor count,"dose: 200.0 mg/kg/injection, schedule: Q04DX003 (ip), vehicle: Klucel (hydroxypropylcellulose) (HPC)",5 of 6
same,survivor count,[4],2 of 6
Cc1ccc(S[Si](Sc2ccc(C)cc2)(Sc2ccc(C)cc2)Sc2ccc(C)cc2)cc1,survivor count,"dose: 100.0 mg/kg/injection, schedule: Q04DX002 (ip), vehicle: saline with Tween-80",6 of 6
C=CCCCCC/C=C/CCCCCC,survivor count,"dose: 300.0 mg/kg/injection, schedule: Q01DX010 (ip), vehicle: saline with Tween-80",5 of 6
O=[N+]([O-])c1ccc(Oc2ccc(C3N(c4ccccc4)CCN3c3ccccc3)cc2)c([N+](=O)[O-])c1,survivor count,"dose: 400.0 mg/kg/injection, schedule: Q01DX009 (ip), vehicle: water",6 of 6
O=C(CBr)c1ccc(I)cc1,survivor count,"dose: 85.0 mg/kg/injection, schedule: Q01DX010 (ip), vehicle: saline",6 of 7
same,survivor count,"dose: 170.0 mg/kg/injection, schedule: Q01DX010 (ip), vehicle: saline",0 of 7
CC1(C)OC(=O)CC(=O)O1,survivor count,[11],6 of 6
